The conditions of the series: 25° C./60% relative humidity for 3 months.

Molecules are shown by their SMILES. Where a name gives a salt, the structure may show the parent alone.

For `CC(C)c1c(C(=O)Nc2ccccc2)c(-c2ccccc2)c(-c2ccc(F)cc2)n1CC[C@@H](O)C[C@@H](O)CC(=O)O` (relative stereo) [amorphous atorvastatin calcium, [R—(R*,R*)]-2-(4-fluorophenyl)-β,δ-dihydroxy-5-(1-methylethyl)-3-phenyl-4-[(phenylamino)carbonyl]-1H-pyrrole-1-heptanoic acid, calcium salt (2:1)], the “Content of each impurity after storage (Formulae I, II, IV, V, VI, VIII, X)” value is recorded as “not more than 0.05%”; the “Content of each impurity after storage (Formulae I-VI, VIII, X, unidentified impurity RRT~1.17)” value is on record as “not more than 0.1%”; the “Content of each impurity after storage (Formulae I-VI, VIII, X-XII, unidentified impurities RRT~1.03 and RRT~1.17)” value is given as “not more than 0.15%”; the “Content of each impurity after storage (Formulae I-VIII, X-XII, unidentified impurities RRT~1.03 and RRT~1.17; not diketoepoxide IX)” value was “Not more than 0.3%”. Further, the “Content of each impurity after storage (Formulae I-XII, unidentified impurities RRT~1.03 and RRT~1.17)” value is “not more than 0.5%”. Besides, for the setting “by HPLC”, the “Content of O-methyl atorvastatin calcium of Formula X found in amorphous atorvastatin after storage” value is “Less than 0.05% w/w”, the “Content of dihydroxy diepoxide of Formula VIII found in amorphous atorvastatin after storage” value is on record as “Less than 0.05% w/w” and the “Content of methyl ester of atorvastatin of Formula VI found in amorphous atorvastatin after storage” value was “Less than 0.05% w/w”. Besides, the “Content of amide impurity of Formula I found in amorphous atorvastatin after storage” value (by HPLC, LOD 0.04%) is reported as “to below 0.05% w/w”. Moreover, the “Content of 5′-deshydroxy atorvastatin of Formula V found in amorphous atorvastatin after storage” value (by HPLC, LOD 0.048%) is on record as < 0.048%) to less than 0.05% w/w. Further, the “Content of 3′-deshydroxy atorvastatin of Formula IV found in amorphous atorvastatin after storage” value (by HPLC, LOD 0.049%) was < 0.049%) to less than 0.05% w/w. The “Content of diastereomer of atorvastatin calcium of Formula II found in amorphous atorvastatin after storage” value (by HPLC, LOQ 0.062) is recorded as “than 0.5% w/w”.

(Values after US20090216029A1, “PROCESS FOR THE PRODUCTION OF ATORVASTATIN CALCIUM IN AMORPHOUS FORM” (priority 2008, published 2009).)
